Patent US7232559B1, “Diagnostic agents for pancreatic exocrine function” (Tokyo Gas Company Limited, priority 1999, dated 2007)

How the values were obtained:
[1] = test system: chronic pancreatitis rats and control rats; experiment: PFD test (BT-PABA orally, PABA excretion rate in urine); type: in vivo, rat; details: specificity 100%
Experimental: The rats of the model of chronic pancreatitis and control rats, which were kept for 3 to 4 weeks after the operation, were made to fast from 9:00 AM. At 4:00 PM, 3 mg/ml of BT-PABA (PFD solution for internal use, Eisai) was orally administered in an amount of 15 mg/kg. Urine was collected for 16 hours until 9:00 AM of the next day. The amount of the collected urine and the PABA concentration in the urine were determined using a PABA measuring kit to determine the excretion rate in urine (PFD test).

[2] = test system: chronic pancreatitis rats and control (normal) rats; experiment: ^13C-breath test (Δ^13C in exhaled CO2 after oral administration); type: in vivo, rat
Experimental: A model of chronic pancreatitis in rats were prepared by injecting oleic acid into the pancreatic duct (Mundlos et al., Pancreas 1:29 (1986)). After overnight fast, a Wistar male rat of 5 weeks old was anesthetized by intraperitoneal administration of Nembutal (50 mg/kg). The abdominal wall was shaved and the rat was fixed supinely on an operating table. An Isodine solution was applied to sterilize, and a 3 to 4 cm midline incision was made on the abdomen. The duodenum and the pancreas were drawn out and a 25 G needle was pierced through the duodenal wall. A polyethylene cannula (PE-10) was inserted through the pierced hole into the duodenum and further inserted into the common bile duct by about 5 mm from the papilla. The inserted cannula was fixed by a microclip. Further, the biliary duct was closed by a microclip in order to prevent oleic acid from flowing into the liver. Oleic acid (50 μl) was injected at a rate of 20 μl/min by a microsyringe pump. After the injection was completed, the rat was allowed to stand for 2 minutes so that the oleic acid was distributed throughout the pancreas. The microclips and cannula were removed and the duodenum was returned. The endothelium was sutured with silk thread (Nescosuture silk suture thread 3-0, Nihon Shoji KK) and the outer skin was sutured with a skin stapler (Appose ULC, No. 8034-12, 5.7×3.8 mm). As a control, only laparotomy was carried out. These rats subjected to the operation were kept under free intake of standard food and water at 23° C., relative humidity of 55% until use.
The rat of 9 weeks old was fixed without anesthesia in a rat holder for a microwave irradiation apparatus. […]
Δ^13C (‰) was calculated from the ^13C concentration in the exhaled CO2 at each time point (^13C tmin) and the ^13C concentration in standard CO2 (^13C std) according to the following equation: Δ^13C (‰)=[(^13C tmin−^13C 0min)/^13C std]×1000

O=C(O)c1ccc(NC(=O)[C@H](Cc2ccc(O)cc2)NC(=O)c2ccccc2)cc1 [PFD, N-benzoyl-L-tyrosyl-p-aminobenzoic acid]
sensitivity in the PFD test ([1]; same group of rats as Bz-Ala-(^13C-Ala) breath test): 63% | sensitivity in the PFD test ([1]; same group of rats as Bz-DL-Phe-(^13C-Leu) breath test, BT-PABA 15 mg/kg oral): 50% | sensitivity in the PFD test ([1]; same group of rats as Bz-Gly-(^13C-Leu) breath test): 50%

Bz-Ala-(^13C-Ala)
sensitivity of breath test (cut off set such that specificity is 100%) ([2]; Δ^13C value at 10 minutes as check value, 50 mg/kg oral, chronic pancreatitis n=8, normal n=7): 88%

Bz-DL-Phe-(^13C-Leu)
sensitivity of breath test (cut off set such that specificity is 100%) ([2]; Δ^13C value at 10 minutes as check value, 250 mg/kg oral, chronic pancreatitis n=8, control n=4): 100%

Bz-Gly-(^13C-Leu)
sensitivity of breath test (cut off set such that specificity is 100%) ([2]; Δ^13C value at 18 minutes as check value, 50 mg/kg oral, chronic pancreatitis n=10, normal n=10): 80%
